These are yes or no findings as the source states them, for the method shown. In cells and extracts the contact can be indirect.

Sequences of proteins named here, by UniProt entry; tags and fusion partners are left off.
UniProt Q08775: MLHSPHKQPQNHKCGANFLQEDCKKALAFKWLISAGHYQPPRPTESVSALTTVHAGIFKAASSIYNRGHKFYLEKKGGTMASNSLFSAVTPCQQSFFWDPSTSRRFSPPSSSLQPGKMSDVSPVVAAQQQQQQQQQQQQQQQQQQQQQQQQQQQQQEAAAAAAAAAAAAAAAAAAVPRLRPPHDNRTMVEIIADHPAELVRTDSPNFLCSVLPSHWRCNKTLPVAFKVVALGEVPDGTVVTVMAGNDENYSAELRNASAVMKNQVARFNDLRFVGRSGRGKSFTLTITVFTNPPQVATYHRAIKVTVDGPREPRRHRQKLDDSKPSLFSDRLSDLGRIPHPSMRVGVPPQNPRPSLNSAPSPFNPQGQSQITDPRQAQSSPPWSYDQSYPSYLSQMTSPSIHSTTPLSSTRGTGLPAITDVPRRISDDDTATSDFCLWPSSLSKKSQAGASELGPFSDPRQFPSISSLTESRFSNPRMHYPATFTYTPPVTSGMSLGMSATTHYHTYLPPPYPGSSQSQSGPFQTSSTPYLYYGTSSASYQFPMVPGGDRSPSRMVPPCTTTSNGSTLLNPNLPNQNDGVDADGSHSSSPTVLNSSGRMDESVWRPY
UniProt B1AY13: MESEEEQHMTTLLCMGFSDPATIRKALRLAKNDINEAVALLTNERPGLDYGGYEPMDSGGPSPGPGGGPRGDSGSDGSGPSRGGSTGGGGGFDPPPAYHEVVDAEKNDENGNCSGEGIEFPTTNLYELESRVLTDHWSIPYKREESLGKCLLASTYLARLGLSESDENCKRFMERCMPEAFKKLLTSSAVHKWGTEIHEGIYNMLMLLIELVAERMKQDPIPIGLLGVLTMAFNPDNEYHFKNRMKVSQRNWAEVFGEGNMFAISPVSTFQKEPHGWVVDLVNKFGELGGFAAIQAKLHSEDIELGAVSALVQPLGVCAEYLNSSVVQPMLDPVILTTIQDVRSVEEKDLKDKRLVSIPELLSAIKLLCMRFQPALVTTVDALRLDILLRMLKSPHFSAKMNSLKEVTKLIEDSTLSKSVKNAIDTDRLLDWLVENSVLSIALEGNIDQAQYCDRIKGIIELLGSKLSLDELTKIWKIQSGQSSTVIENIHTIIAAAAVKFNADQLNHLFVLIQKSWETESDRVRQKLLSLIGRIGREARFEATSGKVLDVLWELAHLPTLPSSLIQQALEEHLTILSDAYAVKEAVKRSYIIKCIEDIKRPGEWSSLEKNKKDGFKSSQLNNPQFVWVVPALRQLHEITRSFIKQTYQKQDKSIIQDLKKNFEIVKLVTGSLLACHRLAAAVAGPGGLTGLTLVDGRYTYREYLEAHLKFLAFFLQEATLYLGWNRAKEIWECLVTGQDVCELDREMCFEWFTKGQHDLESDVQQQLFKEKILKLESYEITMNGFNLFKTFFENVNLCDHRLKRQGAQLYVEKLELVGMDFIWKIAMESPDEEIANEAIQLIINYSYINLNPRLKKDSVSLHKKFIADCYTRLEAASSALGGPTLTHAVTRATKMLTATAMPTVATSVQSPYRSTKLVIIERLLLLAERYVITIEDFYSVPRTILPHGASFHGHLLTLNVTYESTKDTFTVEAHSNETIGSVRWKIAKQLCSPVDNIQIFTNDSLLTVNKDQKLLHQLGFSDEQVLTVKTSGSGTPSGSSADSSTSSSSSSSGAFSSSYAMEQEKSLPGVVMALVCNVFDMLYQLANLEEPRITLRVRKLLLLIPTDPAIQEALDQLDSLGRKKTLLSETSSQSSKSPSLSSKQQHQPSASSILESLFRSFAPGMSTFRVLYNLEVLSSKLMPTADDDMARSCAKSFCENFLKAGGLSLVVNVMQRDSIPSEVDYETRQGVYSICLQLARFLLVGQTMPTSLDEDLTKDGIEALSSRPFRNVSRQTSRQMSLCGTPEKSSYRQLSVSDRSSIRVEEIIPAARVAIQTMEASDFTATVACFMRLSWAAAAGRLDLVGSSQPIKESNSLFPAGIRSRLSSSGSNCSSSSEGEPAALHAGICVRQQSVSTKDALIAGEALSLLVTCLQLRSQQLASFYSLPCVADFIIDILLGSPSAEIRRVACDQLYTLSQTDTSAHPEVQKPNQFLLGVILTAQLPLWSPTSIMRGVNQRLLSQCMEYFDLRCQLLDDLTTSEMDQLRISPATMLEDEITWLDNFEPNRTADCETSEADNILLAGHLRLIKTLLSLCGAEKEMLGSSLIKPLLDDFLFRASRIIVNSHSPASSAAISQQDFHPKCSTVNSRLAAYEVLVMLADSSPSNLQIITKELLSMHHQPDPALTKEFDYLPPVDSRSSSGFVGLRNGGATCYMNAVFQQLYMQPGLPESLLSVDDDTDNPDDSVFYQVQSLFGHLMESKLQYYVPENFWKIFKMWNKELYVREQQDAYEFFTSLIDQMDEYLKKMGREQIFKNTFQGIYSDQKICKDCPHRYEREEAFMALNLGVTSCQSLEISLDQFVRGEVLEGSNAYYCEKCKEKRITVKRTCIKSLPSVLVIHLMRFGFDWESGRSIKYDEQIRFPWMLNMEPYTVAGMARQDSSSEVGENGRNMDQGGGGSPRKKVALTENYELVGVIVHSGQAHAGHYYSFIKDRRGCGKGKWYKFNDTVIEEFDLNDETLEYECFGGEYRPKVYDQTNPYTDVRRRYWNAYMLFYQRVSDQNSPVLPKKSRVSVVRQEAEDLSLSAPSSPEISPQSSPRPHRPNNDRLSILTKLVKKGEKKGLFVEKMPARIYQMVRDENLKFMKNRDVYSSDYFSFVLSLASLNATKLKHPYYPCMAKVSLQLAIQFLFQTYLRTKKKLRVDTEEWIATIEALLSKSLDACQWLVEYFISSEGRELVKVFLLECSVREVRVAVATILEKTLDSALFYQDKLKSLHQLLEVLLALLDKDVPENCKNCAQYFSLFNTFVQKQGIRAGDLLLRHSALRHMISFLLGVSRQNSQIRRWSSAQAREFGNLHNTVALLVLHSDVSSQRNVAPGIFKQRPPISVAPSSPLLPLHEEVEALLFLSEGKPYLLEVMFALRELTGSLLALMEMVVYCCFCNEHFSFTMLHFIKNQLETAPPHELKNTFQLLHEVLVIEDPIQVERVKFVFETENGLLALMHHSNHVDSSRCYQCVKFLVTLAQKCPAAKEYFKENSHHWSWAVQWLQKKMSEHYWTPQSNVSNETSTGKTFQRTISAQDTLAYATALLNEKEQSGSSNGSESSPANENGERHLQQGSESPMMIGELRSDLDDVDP

The assay addresses RUNX2 (endogenous, mouse calvarial osteoblasts) (mouse (endogenous in COBs)) (UniProt Q08775). The experiment in a line: co-IP; endogenous proteins in lysate of wild-type mouse COBs (50 mM Tris-HCl pH 7.4, 150 mM NaCl, 1% Triton X-100, 1 mM EDTA, 1 mM EGTA); IgG control or anti-RUNX2 and protein G-conjugated agarose; immunoblot. Background: In western blotting, separated proteins are transferred to a membrane and probed.

On to “USP24 (endogenous, mouse calvarial osteoblasts) (from UniProt B1AY13 1-2617) (enzyme)”, for which the binding entry is recorded as “no binding”.

These data come from paper PMC7210266.
